# Reference: the supplement of paper PMC8728848
# The other results are listed elsewhere or left out.
# B1: RsaA-N-term (Caulobacter crescentus), P35828 (protein)
# chain: MAYTTAQLVTAYTNANLGKAPDAATTLTLDAYATQTQTGGLSDAAALTNTLKLVNSTTAVAIQTYQFFTGVAPSAAGLDFLVDSTTNTNDLNDAYYSKFAQENRFINFSINLATGAGAGATAFAAAYTGVSYAQTVATAYDKIIGNAVATAAGVDVAAAVAFLSRQANIDYLTAFVRANTPFTAAADIDLAVKAALIGTILNAATVSGIGGYATATAAMINDLSDGALSTDNAAGVNLFTAYPSSGVSGSTLSLTTGTDTLTGTANNDTFVAGEVAGDGSGWSHPQFEKGG
# How the values were obtained:
# Test in all cases: glycan array binding signal (z-score within array); higher = stronger binding
# Conditions in all cases: glycan notation: IUPAC condensed, linker removed
# [1] = molecular target: Neu5Ac(a2-6)Gal(b1-4)GlcNAc(b1-3)[Neu5Ac(a2-6)Gal(b1-4)GlcNAc(b1-6)]GalNAc
# Method in brief: (§1)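 The binding signal is a Z-score computed within each array. Data were drawn from 3228 arrays in the Consortium for Functional Glycomics database, restricted to those with a known protein sequence. Scores were averaged over arrays of the same protein sequence at different concentrations or buffers, and over linkers, and negative values can be taken as non-binding.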
# [2] = molecular target: Neu5Ac(a2-6)Gal(b1-4)GlcNAc(b1-6)GalNAc
# Method in brief: as §1
# [3] = molecular target: Neu5Ac(a2-6)Gal(b1-4)GlcNAc(b1-6)[Gal(b1-3)GlcNAc(b1-3)]Gal(b1-4)Glc
# Method in brief: as §1
# [4] = molecular target: Neu5Ac(a2-6)Gal(b1-4)GlcNAc(b1-6)[Gal(b1-3)]GalNAc
# Method in brief: as §1
# [5] = molecular target: Neu5Ac(a2-6)Gal(b1-4)GlcNAc6S
# Method in brief: as §1
# [6] = molecular target: Neu5Ac(a2-6)GalNAc
# Method in brief: as §1
# [7] = molecular target: Neu5Ac(a2-6)GalNAc(b1-4)GlcNAc
# Method in brief: as §1
# [8] = molecular target: Neu5Ac(a2-6)GalNAc(b1-4)GlcNAc6S
# Method in brief: as §1
# [9] = molecular target: Neu5Ac(a2-6)GlcNAc(b1-4)GlcNAc
# Method in brief: as §1
# [10] = molecular target: Neu5Ac(a2-6)GlcNAc(b1-4)GlcNAc(b1-4)GlcNAc
# Method in brief: as §1
# [11] = molecular target: Neu5Ac(a2-8)Neu5Ac
# Method in brief: as §1
# [12] = molecular target: Neu5Ac(a2-8)Neu5Ac(a2-3)Gal(b1-3)GalNAc(b1-4)[Neu5Ac(a2-3)]Gal(b1-4)Glc
# Method in brief: as §1
# [13] = molecular target: Neu5Ac(a2-8)Neu5Ac(a2-3)Gal(b1-3)GalNAc(b1-4)[Neu5Ac(a2-8)Neu5Ac(a2-3)]Gal(b1-4)Glc
# Method in brief: as §1
# [14] = molecular target: Neu5Ac(a2-8)Neu5Ac(a2-3)Gal(b1-4)Glc
# Method in brief: as §1
# [15] = molecular target: Neu5Ac(a2-8)Neu5Ac(a2-3)Gal(b1-4)GlcNAc
# Method in brief: as §1
# [16] = molecular target: Neu5Ac(a2-8)Neu5Ac(a2-3)[Gal(b1-3)GalNAc(b1-4)]Gal(b1-4)Glc
# Method in brief: as §1
# [17] = molecular target: Neu5Ac(a2-8)Neu5Ac(a2-3)[GalNAc(b1-4)]Gal(b1-4)Glc
# Method in brief: as §1
# [18] = molecular target: Neu5Ac(a2-8)Neu5Ac(a2-8)Neu5Ac
# Method in brief: as §1
# [19] = molecular target: Neu5Ac(a2-8)Neu5Ac(a2-8)Neu5Ac(a2-3)Gal(b1-4)Glc
# Method in brief: as §1
# [20] = molecular target: Neu5Ac(a2-8)Neu5Ac(a2-8)Neu5Ac(a2-3)[Gal(b1-3)GalNAc(b1-4)]Gal(b1-4)Glc
# Method in brief: as §1
# [21] = molecular target: Neu5Ac(a2-8)Neu5Ac(a2-8)Neu5Ac(a2-3)[GalNAc(b1-4)]Gal(b1-4)Glc
# Method in brief: as §1
# [22] = molecular target: Neu5Ac(a2-8)Neu5Ac(a2-8)Neu5Ac(a2-8)Neu5Ac(a2-3)[GalNAc(b1-4)]Gal(b1-4)Glc
# Method in brief: as §1
# [23] = molecular target: Neu5Ac(a2-8)Neu5Gc(a2-3)Gal(b1-4)GlcNAc
# Method in brief: as §1
# [24] = molecular target: Neu5Ac(b2-6)Gal(b1-4)GlcNAc
# Method in brief: as §1
# [25] = molecular target: Neu5Ac(b2-6)GalNAc
# Method in brief: as §1
# [26] = molecular target: Neu5Ac9Ac(a2-3)Gal(b1-3)GlcNAc
# Method in brief: as §1
# [27] = molecular target: Neu5Ac9Ac(a2-3)Gal(b1-4)GlcNAc
# Method in brief: as §1
# [28] = molecular target: Neu5Ac9Ac(a2-6)Gal(b1-4)GlcNAc
# Method in brief: as §1
# [29] = molecular target: Neu5Gc(a2-3)Gal(b1-3)GlcNAc
# Method in brief: as §1
# [30] = molecular target: Neu5Gc(a2-3)Gal(b1-3)[Fuc(a1-4)]GlcNAc
# Method in brief: as §1
# [31] = molecular target: Neu5Gc(a2-3)Gal(b1-4)Glc
# Method in brief: as §1
# [32] = molecular target: Neu5Gc(a2-3)Gal(b1-4)GlcNAc
# Method in brief: as §1
# [33] = molecular target: Neu5Gc(a2-3)Gal(b1-4)GlcNAc(b1-3)Gal(b1-4)GlcNAc(b1-2)Man(a1-3)[Neu5Gc(a2-3)Gal(b1-4)GlcNAc(b1-3)Gal(b1-4)GlcNAc(b1-2)Man(a1-6)]Man(b1-4)GlcNAc(b1-4)GlcNAc
# Method in brief: as §1
# [34] = molecular target: Neu5Gc(a2-3)Gal(b1-4)[Fuc(a1-3)]GlcNAc
# Method in brief: as §1
# [35] = molecular target: Neu5Gc(a2-6)Gal(b1-4)GlcNAc
# Method in brief: as §1
# [36] = molecular target: Neu5Gc(a2-6)GalNAc
# Method in brief: as §1
# [37] = molecular target: Neu5Gc(a2-8)Neu5Ac(a2-3)Gal(b1-4)GlcNAc
# Method in brief: as §1
# [38] = molecular target: Neu5Gc(a2-8)Neu5Gc(a2-3)Gal(b1-4)GlcNAc
# Method in brief: as §1
binder,measurement,setting,value
B1,glycan array binding signal (z-score),[1],-0.254
same,glycan array binding signal (z-score),[2],0.243
same,glycan array binding signal (z-score),[3],1.12
same,glycan array binding signal (z-score),[4],-0.134
same,glycan array binding signal (z-score),[5],0.208
same,glycan array binding signal (z-score),[6],2.17
same,glycan array binding signal (z-score),[7],-0.593
same,glycan array binding signal (z-score),[8],-0.147
same,glycan array binding signal (z-score),[9],0.512
same,glycan array binding signal (z-score),[10],1.03
same,glycan array binding signal (z-score),[11],0.164
same,glycan array binding signal (z-score),[12],-0.642
same,glycan array binding signal (z-score),[13],0.122
same,glycan array binding signal (z-score),[14],-0.815
same,glycan array binding signal (z-score),[15],-0.177
same,glycan array binding signal (z-score),[16],-0.027
same,glycan array binding signal (z-score),[17],-0.001
same,glycan array binding signal (z-score),[18],-0.579
same,glycan array binding signal (z-score),[19],-0.265
same,glycan array binding signal (z-score),[20],-0.646
same,glycan array binding signal (z-score),[21],-0.2
same,glycan array binding signal (z-score),[22],1.29
same,glycan array binding signal (z-score),[23],-0.855
same,glycan array binding signal (z-score),[24],0.047
same,glycan array binding signal (z-score),[25],-0.15
same,glycan array binding signal (z-score),[26],1.66
same,glycan array binding signal (z-score),[27],-0.179
same,glycan array binding signal (z-score),[28],-0.765
same,glycan array binding signal (z-score),[29],-0.512
same,glycan array binding signal (z-score),[30],0.633
same,glycan array binding signal (z-score),[31],-0.605
same,glycan array binding signal (z-score),[32],0.428
same,glycan array binding signal (z-score),[33],0.548
same,glycan array binding signal (z-score),[34],0.371
same,glycan array binding signal (z-score),[35],0.784
same,glycan array binding signal (z-score),[36],0.667
same,glycan array binding signal (z-score),[37],-1.31
same,glycan array binding signal (z-score),[38],0.037

# Quoted at random: 2 entries already listed
binder,measurement,setting,value
B1,glycan array binding signal (z-score),[15],-0.177
same,glycan array binding signal (z-score),[23],-0.855
